Screen size: about 350,000 compounds; about 6,000 (1.7%) were called active. This list was built around the results that the source calls inconclusive (neither active nor inactive); the mix of calls is not that of the screen. No stated cut-off is given here; in the data, active means CPE inhibition above about 20% (passing the limit was not always enough); inconclusive means no clear call, values can overlap the other calls; tested in BHK-21 cells. Some compounds were tested as several samples or in several runs, with calls that do not always agree.
assay: protection of cells from dengue 2 killing – plate reader, single concentration, primary screen (AID 651640); conditions: DENV2-infected cells, cytopathic effect rescue, at 9.99 µM, hits give high values;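 further: 0% = median of neutral control wells and 100% = median of positive control wells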

Question: For `CCCNC(=O)C[C@H]1CC[C@H]2[C@H](COc3ccc(NC(=O)CCC)cc3C(=O)N2C)O1`, which CPE inhibition is on record?
Answer: inactive: 2.5%

Question: Which CPE inhibition does the source give for `COC(=O)C(=O)C1CCc2c(Cl)cc(OC)c(OC)c2C1=O` (stereo not drawn) here?
Answer: active: 64.7%

Question: With `CCOC(=O)N1CCC(N2C(=O)c3ccccc3C2Nc2cc(Cl)c(OC)cc2OC)CC1` (stereo not drawn) as the compound, how does the CPE inhibition read?
Answer: inconclusive: 21.1%

Question: For `CN1C(=O)CSC1=Nc1ccc(F)cc1`, which CPE inhibition is on record?
Answer: inconclusive: 21.7%

Question: For `CCOC(=O)C1CCN(C(=O)COC(=O)c2oc3ccccc3c2C)CC1`, which CPE inhibition is on record?
Answer: inconclusive: 38.3%

Question: With `O=C(CCl)c1cc2c3c(c1)CC(=O)N3CCC2` as the compound, how does the CPE inhibition read?
Answer: inconclusive: 22%

Question: Which CPE inhibition does the source give for `CCC(=O)Nc1ccc2c(c1)OC[C@@H](C)N(Cc1cccnc1)C[C@@H](C)[C@@H](OC)CN(C)C2=O` here?
Answer: inactive: -1.58%

Question: For `C[C@H]1CN([C@@H](C)CO)C(=O)CCCn2cc(nn2)CO[C@@H]1CN(C)CC1CCCC1`, which CPE inhibition is on record?
Answer: inconclusive: 20.5%

Question: Which CPE inhibition does the source give for `COc1ccc(C(=O)NCC(=O)OCC(=O)NC2CCCCCC2)cc1OC` here?
Answer: inconclusive: 57.1%

Question: For `COCCNC(=O)[C@H]1[C@H](CO)[C@H]2Cn3c(cccc3=O)[C@@H]1N2Cc1cc(F)ccc1F`, which CPE inhibition is on record?
Answer: active: 39.8%

Question: For `O=S(=O)(c1ccccc1)C(Br)S(=O)(=O)c1ccccc1`, which CPE inhibition is on record?
Answer: inconclusive: 67%

Question: For `O=C(C[C@@H]1C[C@@H]2c3cc(NC(=O)NC4CCCC4)ccc3O[C@@H]2[C@@H](CO)O1)NCC1CC1`, which CPE inhibition is on record?
Answer: inconclusive: 22.8%

Question: Which CPE inhibition does the source give for `O=C(Cc1ccccn1)c1ccccc1` here?
Answer: active: 49.6%

Question: With `CC(C)(C)NCC(O)COc1cccc2c1CCC(=O)N2` (stereo not drawn) as the compound, how does the CPE inhibition read?
Answer: inconclusive: 30.2%

Question: Which CPE inhibition does the source give for `C=CCCO[C@@H]1O[C@@H](C)[C@H](O)C[C@H]1O` here?
Answer: inconclusive: 56.6%

Question: For `COC(=O)[C@H]1C[C@@]2(O)CN(S(=O)(=O)c3ccc(C)cc3)C[C@@]2(OC(=O)NCc2ccc(OC)c(OC)c2)C[C@H]1C(=O)OC`, which CPE inhibition is on record?
Answer: inconclusive: 26%

Question: Which CPE inhibition does the source give for `C[C@@H]1CN([C@H](C)CO)C(=O)Cc2cc(NS(=O)(=O)c3cccs3)ccc2O[C@H]1CN(C)CC1CCCCC1` here?
Answer: inactive: 0.717%

Question: Which CPE inhibition does the source give for `C[C@@H]1CN([C@@H](C)CO)C(=O)CCCn2nncc2CO[C@H]1CN(C)C(=O)Nc1ccc(-c2cccs2)cc1` here?
Answer: inconclusive: 29.5%

Question: With `CCC(=O)Nc1ccc2c(c1)C(=O)N(C)[C@@H]1CC[C@H](CC(=O)N[C@@H](C)c3ccccc3)O[C@H]1CO2` as the compound, how does the CPE inhibition read?
Answer: active: 62.2%

Question: With `C[C@@H]1CN([C@@H](C)CO)C(=O)c2cc(Br)cnc2O[C@@H]1CN(C)S(C)(=O)=O` as the compound, how does the CPE inhibition read?
Answer: active: 32.3%

Question: With `CC(C)(C)NS(=O)(=O)c1ccc(NC(=S)NC(=O)C2CCC2)cc1` as the compound, how does the CPE inhibition read?
Answer: inconclusive: 20.9%

Question: Which CPE inhibition does the source give for `COc1ccc(-c2c(NCCc3ccccc3)c(=O)c2=O)cc1` here?
Answer: inconclusive: 39.4%

Question: With `COc1cc(OC)cc(C(=O)OC/C(O)=C(\C#N)c2nc3ccccc3[nH]2)c1` as the compound, how does the CPE inhibition read?
Answer: active: 60.5%

Question: With `COc1cc(OC)cc(C(=O)NCC(=O)OCC(=O)c2ccc3c(c2)-c2ccccc2C3)c1` as the compound, how does the CPE inhibition read?
Answer: inactive: -10.6%

Question: Which CPE inhibition does the source give for `CC12COC3(C(=O)Nc4ccc([N+](=O)[O-])cc4)CC1CCC32C` (stereo not drawn) here?
Answer: inconclusive: 83.5%

Question: With `Cc1noc(C)c1NC(=O)N(C)C[C@H]1OCCCC[C@@H](C)Oc2ccc(NS(=O)(=O)c3c(C)noc3C)cc2C(=O)N([C@H](C)CO)C[C@@H]1C` as the compound, how does the CPE inhibition read?
Answer: inactive: -4.26%

Question: Which CPE inhibition does the source give for `CC(=O)N1CC2(C1)[C@H](c1ccccc1)[C@@H](CO)N2CC1CCOCC1` here?
Answer: active: 60.5%

Question: With `C[C@@H]1CN([C@@H](C)CO)C(=O)Cc2cc(NC(=O)Cc3ccccc3)ccc2O[C@H]1CN(C)Cc1ccncc1` as the compound, how does the CPE inhibition read?
Answer: inactive: 2.04%

Question: With `CO[C@H]1CN(C)C(=O)c2cc(NC(=O)c3ccc(F)cc3)ccc2OC[C@H](C)N(C(=O)c2ccc(F)cc2)C[C@H]1C` as the compound, how does the CPE inhibition read?
Answer: inactive: 6.15%

Question: For `Cc1nc(-c2ccc(F)cc2)c(CC(=O)N(C)CC(=O)Nc2ccc(Br)cc2C)s1`, which CPE inhibition is on record?
Answer: inconclusive: 41.5%

Question: With `c1ccc(-c2ccc([C@H]3[C@H]4CNC[C@@H]3N4Cc3cc(-c4ccccc4)on3)cc2)cc1` as the compound, how does the CPE inhibition read?
Answer: inconclusive: 56.4%

Question: For `C[C@@H]1CN([C@@H](C)CO)C(=O)c2cccc(NC(=O)c3ccncc3)c2O[C@H]1CN(C)S(=O)(=O)c1cccs1`, which CPE inhibition is on record?
Answer: inactive: -3.06%

Question: Which CPE inhibition does the source give for `C[C@@H]1CN([C@H](C)CO)C(=O)c2cc(C#Cc3ccccc3)cnc2O[C@@H]1CN(C)S(=O)(=O)c1ccccc1F` here?
Answer: inconclusive: 30.1%

Question: Which CPE inhibition does the source give for `CC/C(C)=C1/NC(=O)NC1=O` here?
Answer: inconclusive: 31.2%

Question: For `COc1ccc2c3c([nH]c2c1)[C@@H](CO)N(C(C)=O)CC31CCN(C(=O)Nc2c(C)noc2C)CC1`, which CPE inhibition is on record?
Answer: active: 20.8%

Question: Which CPE inhibition does the source give for `CC(C)NC(=O)Nc1ccc2c(c1)C(=O)N([C@H](C)CO)C[C@@H](C)[C@H](CN(C)Cc1ccc(C(F)(F)F)cc1)OCCCC[C@H](C)O2` here?
Answer: inactive: 1.71%

Question: With `C[C@H]1CN([C@@H](C)CO)S(=O)(=O)c2ccc(C3=CCCC3)cc2O[C@H]1CN(C)C(=O)Nc1ccc2c(c1)OCO2` as the compound, how does the CPE inhibition read?
Answer: inactive: -1.69%

Question: For `Cc1ccc(S(=O)(=O)N2CCN(C(=O)COC(=O)c3cccnc3Cl)CC2)c(C)c1`, which CPE inhibition is on record?
Answer: inconclusive: 33.8%

Question: Which CPE inhibition does the source give for `Cc1ccc(C(=O)N/C(=C\c2cn(C)c3ccccc23)C(=O)NCCN2CCOCC2)cc1` here?
Answer: inconclusive: 41%

Question: For `Cc1cc(C(=O)NCc2ccc3c(c2)OCO3)ccc1[N+](=O)[O-]`, which CPE inhibition is on record?
Answer: inconclusive: 21.7%

Question: With `O=C(NCCN1CCOCC1)/C(=C/c1ccco1)NC(=O)c1ccccc1` as the compound, how does the CPE inhibition read?
Answer: inconclusive: 29%

Question: For `C[C@@H]1CCCCO[C@@H](CN(C)C(=O)c2ccccc2)[C@H](C)CN([C@@H](C)CO)C(=O)c2cc(NC(=O)Nc3ccc(F)cc3)ccc2O1`, which CPE inhibition is on record?
Answer: inactive: 9.41%

Question: With `CCCn1c(NCc2ccc(N(C)C)cc2)nc2ccccc21` as the compound, how does the CPE inhibition read?
Answer: active: 23.9%

Question: Which CPE inhibition does the source give for `CCCn1c(SCC(=O)N2c3ccccc3CC2C)n[nH]c1=O` (stereo not drawn) here?
Answer: inconclusive: 25.5%

Question: With `C[C@@H]1CN([C@@H](C)CO)C(=O)Cc2cc(NC(=O)c3ccncc3)ccc2O[C@@H]1CN(C)Cc1ccc(C(F)(F)F)cc1` as the compound, how does the CPE inhibition read?
Answer: active: 31.2%

Question: For `COc1ccc(OC)c(CNc2c(C=O)c(=O)[nH]c3ccccc23)c1`, which CPE inhibition is on record?
Answer: inconclusive: 22.8%

Question: With `COc1ccc(NC(=O)N(C)C[C@H]2Oc3ccc(NS(=O)(=O)c4ccc(F)cc4)cc3CC(=O)N([C@H](C)CO)C[C@H]2C)cc1` as the compound, how does the CPE inhibition read?
Answer: inactive: -5.87%

Question: Which CPE inhibition does the source give for `CN1C(c2ccccc2)CCOS1(=O)=O` (stereo not drawn) here?
Answer: active: 47.2%

Question: For `Cc1nc(NC(=O)c2ccccc2)sc1Cc1ccc2c(c1)OCO2`, which CPE inhibition is on record?
Answer: inactive: -1.4%

Question: With `C=CCN(CC=C)Cc1cc(=O)oc2ccccc12` as the compound, how does the CPE inhibition read?
Answer: inconclusive: 30.9%

Question: For `CC(C)NC(=O)Nc1ccc2c(c1)C(=O)N([C@@H](C)CO)C[C@@H](C)[C@@H](CN(C)Cc1ccccc1)O2`, which CPE inhibition is on record?
Answer: inactive: -10.5%

Question: With `Cc1ccc([C@H]2C(C(=O)O)=CC[C@@H](c3ccc(Cl)cc3)N2S(=O)(=O)c2ccc(C)cc2)cc1` as the compound, how does the CPE inhibition read?
Answer: inconclusive: 40.9%

Question: For `CCCC#Cc1ccc2c(c1)O[C@@H](CN(C)S(=O)(=O)c1cccc(F)c1)[C@H](C)CN([C@@H](C)CO)S2(=O)=O`, which CPE inhibition is on record?
Answer: active: 29.6%

Question: Which CPE inhibition does the source give for `Cc1c(C(=O)N2CCOCC2)cc(C(C)(C)C)n1-c1ccccc1` here?
Answer: inconclusive: 22.1%

Question: Which CPE inhibition does the source give for `COc1ccc2c3c(n(C)c2c1)[C@H](CO)N(Cc1cccnc1)CC31CCN(Cc2cccnc2)CC1` here?
Answer: inconclusive: 71.3%

Question: With `CC(C)C[C@H](CO)Nc1nc(Nc2cccc(Cl)c2)c2ncn(C(C)C)c2n1` as the compound, how does the CPE inhibition read?
Answer: inconclusive: 73.9%

Question: With `Cc1noc(C)c1NC(=O)N(C)C[C@H]1Oc2c(NS(=O)(=O)c3cccs3)cccc2C(=O)N([C@H](C)CO)C[C@H]1C` as the compound, how does the CPE inhibition read?
Answer: inconclusive: 33.9%

Question: With `O=C(/C=C/c1ccc(F)cc1)N1CCCc2ccccc21` as the compound, how does the CPE inhibition read?
Answer: inconclusive: 44%

Question: For `O=C(Nc1nnc(COc2ccccc2F)s1)Nc1ccccc1F`, which CPE inhibition is on record?
Answer: inconclusive: 54.3%

Question: For `COc1ccccc1C(=O)n1nc(-c2cccnc2)nc1N`, which CPE inhibition is on record?
Answer: inconclusive: 28.8%

Question: Which CPE inhibition does the source give for `C[C@@H]1CN([C@@H](C)CO)C(=O)c2cc(C#CC3CCCCC3)cnc2O[C@H]1CN(C)S(=O)(=O)c1ccccc1` here?
Answer: inconclusive: 30.5%

Question: Which CPE inhibition does the source give for `CC(=O)N1[C@H](CNC(=O)CN2CCOCC2)[C@H](c2ccccc2)[C@@H]1CO` here?
Answer: inconclusive: 41.6%

Question: For `CCOC(=O)c1ccc(N=NN(C)C)cc1`, which CPE inhibition is on record?
Answer: inconclusive: 22.9%

Question: Which CPE inhibition does the source give for `C[C@H](CO)N1C[C@H](C)[C@H](CN(C)Cc2ccc(-c3ccccc3)cc2)Oc2ccc(NC(=O)CCN3CCOCC3)cc2CC1=O` here?
Answer: inconclusive: 20.5%

Question: Which CPE inhibition does the source give for `c1ccc(CNc2c3ccccc3nc3ccccc23)cc1` here?
Answer: inactive: -2.19%

Question: For `CCOc1ccc(/C=N/NC(=O)c2ccccc2Cl)cc1CN1CC2CC(C1)c1cccc(=O)n1C2` (stereo not drawn), which CPE inhibition is on record?
Answer: inactive: -6.19%

Question: Which CPE inhibition does the source give for `C=CCn1c(SCC(=O)NC2CCCC2)nc2ccccc21` here?
Answer: inconclusive: 33.2%

Question: Which CPE inhibition does the source give for `O=C(NCC1COc2ccccc2O1)c1ccc(Cl)c(S(=O)(=O)N2CCCC2)c1` (stereo not drawn) here?
Answer: inconclusive: 41.9%

Question: With `Cc1noc(C)c1NC(=O)Nc1ccc2c(c1)C(=O)N([C@@H](C)CO)C[C@H](C)[C@@H](CN(C)S(=O)(=O)c1ccc(Cl)cc1)OCCCC[C@H](C)O2` as the compound, how does the CPE inhibition read?
Answer: inactive: -0.474%

Question: Which CPE inhibition does the source give for `O=c1cc(C(F)(F)F)nc(-c2ccccc2OC(F)(F)F)[nH]1` here?
Answer: inconclusive: 31.2%

Question: Which CPE inhibition does the source give for `O=C(CN1CCOCC1)NC[C@@H]1N[C@@H](CO)[C@@H]1c1ccc(-c2ccccc2)cc1` here?
Answer: active: 29.8%

Question: Which CPE inhibition does the source give for `CN(C)S(=O)(=O)c1ccc(Cl)c(NC(=O)CSc2nnnn2-c2ccc(O)cc2)c1` here?
Answer: inactive: -0.658%

Question: Which CPE inhibition does the source give for `Cc1ccc(S(=O)(=O)N(C)C[C@H]2Oc3c(NC(=O)NC4CCCCC4)cccc3C(=O)N([C@@H](C)CO)C[C@@H]2C)cc1` here?
Answer: inactive: -6.31%

— PubChem BioAssay AID651640 (Broad Institute, 2012)
